# Assay results from PMC11997338.
# These are yes or no findings as the source states them, for the method shown. In cells and extracts the contact can be indirect. Binding calls can cover weak binding; strength is not graded here. Tags and fused reporters may be left off the sequences shown.
# Molecular target: T1, hemagglutinin (HA)-tagged endoglin (ENG) (UniProt P17813)
# T1 sequence: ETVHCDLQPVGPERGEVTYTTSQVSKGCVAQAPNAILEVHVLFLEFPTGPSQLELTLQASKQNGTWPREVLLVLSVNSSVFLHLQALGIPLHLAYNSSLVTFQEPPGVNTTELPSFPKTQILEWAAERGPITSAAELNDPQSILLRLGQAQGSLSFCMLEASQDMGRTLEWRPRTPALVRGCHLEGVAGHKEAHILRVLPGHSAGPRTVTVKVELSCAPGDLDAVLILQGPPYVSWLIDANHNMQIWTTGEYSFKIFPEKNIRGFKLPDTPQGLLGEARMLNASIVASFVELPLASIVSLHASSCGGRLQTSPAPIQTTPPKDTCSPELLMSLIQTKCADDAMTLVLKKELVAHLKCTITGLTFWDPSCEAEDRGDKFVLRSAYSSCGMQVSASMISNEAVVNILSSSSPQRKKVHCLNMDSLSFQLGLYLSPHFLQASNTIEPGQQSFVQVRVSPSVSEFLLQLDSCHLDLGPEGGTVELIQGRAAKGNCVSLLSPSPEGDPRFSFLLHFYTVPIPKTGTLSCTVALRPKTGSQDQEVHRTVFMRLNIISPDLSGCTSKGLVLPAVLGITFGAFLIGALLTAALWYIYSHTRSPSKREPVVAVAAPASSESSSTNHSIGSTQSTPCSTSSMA
# Assay: co-IP; HEK293T co-transfected with HA-tagged ENG and GFP-tagged DSP plasmids, 48 h; NP-40 lysis buffer (50 mM Tris–HCl pH 7.4, 150 mM NaCl, 1% NP-40); anti-HA or anti-GFP antibody overnight at 4 °C, protein A/G magnetic beads; isotype IgG control; Western blot
row,Substance,binding
1,GFP-tagged DSP_(aa34–50) (domain or fragment),binds
2,GFP-tagged DSP_(Δ34–50),no binding
3,GFP-tagged full-length dentin sialoprotein (DSP),binds
4,"GFP-tagged truncated DSP, aa1–100 (domain or fragment)",binds
